Results taken from patent publication US20040219615A1.
These are yes or no findings as the source states them, for the method shown. Some binding calls cover weakened binding; strength is not graded here.

Sequences of proteins named here, by UniProt entry; tags and fusion partners are left off. A change or cut given only in a name is not applied to a line headed by its entry.
UniProt Q9Y6K9: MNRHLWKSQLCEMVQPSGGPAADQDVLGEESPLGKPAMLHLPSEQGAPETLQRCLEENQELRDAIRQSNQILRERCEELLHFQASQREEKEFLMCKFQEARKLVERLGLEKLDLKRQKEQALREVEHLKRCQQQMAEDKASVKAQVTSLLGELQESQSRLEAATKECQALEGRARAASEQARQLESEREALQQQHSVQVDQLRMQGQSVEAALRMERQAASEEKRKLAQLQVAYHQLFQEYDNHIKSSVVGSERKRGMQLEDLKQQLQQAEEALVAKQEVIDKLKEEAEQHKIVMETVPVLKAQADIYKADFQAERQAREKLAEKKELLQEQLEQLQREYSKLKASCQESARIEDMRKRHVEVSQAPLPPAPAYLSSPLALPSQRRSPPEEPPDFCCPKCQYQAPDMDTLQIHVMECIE

Legend:
[1] = target: RAP-2 (RIP-associated protein-2), full-length (human) (UniProt Q9Y6K9); assay: yeast two-hybrid test
[2] = target: RAP-2 (RIP-associated protein-2), full-length (human) (UniProt Q9Y6K9); assay: yeast two-hybrid screen of the B-cell cDNA library, full-length RAP-2 as bait

binding [1]: binds
binding [2]: binds
B1: clone #84 (protein, UniProt Q99675 1-332, looked up)
chain: MAAVFLVTLYEYSPLFYIAVVFTCFIVTTGLVLGWFGWDVPVILRNSEETQFSTRVFKKQMRQVKNPFGLEITNPSSASITTGITLTTDCLEDSLLTCYWGCSVQKLYEALQKHVYCFRISTPQALEDALYSEYLYQEQYFIKKDSKEEIYCQLPRDTKIEDFGTVPRSRYPLVALLTLADEDDREIYDIISMVSVIHIPDRTYKLSCRILYQYLLLAQGQFHDLKQLFMSANNNFTPSNNSSSEEKNTDRSLLEKVGLSESEVEPSEENSKDCVVCQNGTVNWVLLPCRHTCLCDGCVKYFQQCPMCRQFVQESFALCSQKEQDKDKPKTL
